No constants are given. Whether binding was seen depends on the method and setting. Binding seen in cells or lysates may run through a third protein. A yes stands for co-enrichment or nearness to the bait. Other partners may have been found. Tags and fused reporters may be left off the sequences shown.
Molecular target: T1, APRF1-FLAG (FLAG-tagged ANTHESIS PROMOTING FACTOR 1) (Arabidopsis thaliana) (UniProt Q9LYK6)
T1 sequence: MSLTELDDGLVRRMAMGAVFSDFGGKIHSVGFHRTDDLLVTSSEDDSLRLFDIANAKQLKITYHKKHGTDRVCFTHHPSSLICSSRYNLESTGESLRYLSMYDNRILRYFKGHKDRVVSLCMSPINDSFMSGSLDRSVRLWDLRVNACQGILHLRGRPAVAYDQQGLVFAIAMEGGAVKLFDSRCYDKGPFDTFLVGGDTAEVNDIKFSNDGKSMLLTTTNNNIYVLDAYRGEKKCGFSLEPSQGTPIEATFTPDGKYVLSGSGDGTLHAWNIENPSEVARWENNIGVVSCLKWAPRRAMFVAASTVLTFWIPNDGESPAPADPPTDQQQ
Experiment: affinity purification with mass spectrometry; anti-FLAG antibody on protein G magnetic beads, incubated overnight at 4 °C with concentrated total lysate of APRF1-FLAG plants (lines 1 and 3) or WT Col-0 (control); lysis buffer 10% glycerol, 25 mM Tris pH 7.6, 1 mM EDTA, 150 mM NaCl, 0.1% NP40; proteins found only in lines 1 and 3 were kept

By UniProt entry, the sequences of proteins in these tests, tags left out.
UniProt P55737: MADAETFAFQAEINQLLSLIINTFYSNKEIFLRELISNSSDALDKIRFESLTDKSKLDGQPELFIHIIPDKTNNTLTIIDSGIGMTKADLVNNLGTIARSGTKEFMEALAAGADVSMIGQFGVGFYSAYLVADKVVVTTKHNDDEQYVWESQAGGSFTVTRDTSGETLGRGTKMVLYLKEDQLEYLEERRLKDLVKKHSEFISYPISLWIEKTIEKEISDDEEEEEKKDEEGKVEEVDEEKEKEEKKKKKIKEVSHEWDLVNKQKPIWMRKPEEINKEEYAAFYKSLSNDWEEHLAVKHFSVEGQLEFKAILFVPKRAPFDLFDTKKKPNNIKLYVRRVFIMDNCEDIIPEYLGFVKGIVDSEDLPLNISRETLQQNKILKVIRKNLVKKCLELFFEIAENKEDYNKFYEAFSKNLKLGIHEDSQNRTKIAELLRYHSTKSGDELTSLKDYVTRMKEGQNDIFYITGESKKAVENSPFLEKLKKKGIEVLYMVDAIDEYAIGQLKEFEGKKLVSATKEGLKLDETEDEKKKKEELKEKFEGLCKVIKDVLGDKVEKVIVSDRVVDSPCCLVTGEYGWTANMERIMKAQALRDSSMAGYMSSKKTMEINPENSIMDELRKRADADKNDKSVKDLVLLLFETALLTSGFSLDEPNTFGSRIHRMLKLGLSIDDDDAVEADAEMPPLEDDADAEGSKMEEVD

In the case of “HSP90.2 (endogenous) (from UniProt P55737 1-699)”, the binding is reported as “binds”.

Reference: paper PMC10816710
